By AC50 is commonly meant the concentration giving half of the maximal activity seen.

The structures appear in SMILES notation. The list shows a part of the results. These are further read-outs of the screen, such as a control signal, another cell line or another target. No call is given for them. Most of these compounds were active or inconclusive in the main read-out, so they are no random draw. Words in brackets tell the shape of the fitted curve; partial curves, single points and poor fits give uncertain potencies.

The nature of the assay: qHTS Assay for Modulators of Lamin A Splicing. To be noted: HeLa LMNA splicing GFP/RFP minigene ratio, 48 h. The procedure, abridged:
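S3 HeLa stable clones carrying a lamin A-EGFP splicing minigene plus DsRed2 were seeded at 600 cells/well in Opti-MEM with 2% FBS, pin-dosed and incubated 48 h at 37°C. Acumen cytometry (488 nm) gave the GFP/RFP total-intensity ratio.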
On the technique in general: In qHTS, concentration-response curves come from the screen itself.

Setting [1] is: measured here: GFP splicing reporter channel.
Setting [2] is: measured here: RFP viability control channel.

With `Cc1nn(-c2ccc(C(=O)O)cc2)c(C)c1Cl`, the concentration at half-maximal activity (AC50) under setting [1] is 0.178 µM [rising, full curve, poor fit]. In the case of `C=C(C)CNC(=S)N/N=C(\C)c1ccc(Cl)s1`, the AC50 under setting [1] was 11.2 µM [falling, partial curve, poor fit] and the AC50 under setting [2] was 14.1 µM [falling, partial curve, poor fit]. Take `CC1(C)CC(N2CCN(c3ccccc3)CC2)=CC(=[N+]2CCCC2)C1`: the AC50 is 2.82 µM [rising, full curve, poor fit] under setting [1] and 2.82 µM [rising, full curve] under setting [2].

Turning to `CCOc1ccc(CN(C)CC(=O)Nc2ccc([N+](=O)[O-])cc2Cl)cc1`, the AC50 under setting [2] is 35.5 µM [rising, single point]. For `Cc1[nH]n(C2=NCCS2)c(=O)c1N=Nc1cccc(C(F)(F)F)c1`, the AC50 reads like this: under setting [1], 2 µM [falling, full curve]; under setting [2], 5.01 µM [falling, partial curve, poor fit]. With `CN1C2CCC1/C(=C\c1ccc(F)cc1)C(=O)/C2=C/c1ccc(F)cc1`, under setting [2], the AC50 was 15.8 µM [rising, partial curve]. The same measure, in the same setting: under `C=CCSc1nnc(NC(=O)c2ccc(S(=O)(=O)NCC3CCCO3)cc2)s1` (stereo not drawn) stands 17.8 µM [rising, single point]. Consider `Nc1ccc(O)cc1C(=O)OCC(=O)c1ccc(C2CCCCC2)cc1`, for which the AC50 runs as follows: under setting [1], 20 µM [rising, single point]; under setting [2], 31.6 µM [rising, single point]. Regarding `Cc1cc(NC(=S)N(CCN2CCCCC2)Cc2ccco2)ccc1Cl`, the AC50 under setting [1] is 15.8 µM [falling, partial curve]. Consider `c1ccc2c(c1)CCN(c1ncnc3c1[nH]c1ccccc13)C2`, for which the AC50 is, setting by setting: under setting [1], 7.08 µM [rising, partial curve, poor fit]; under setting [2], 2.82 µM [rising, partial curve]. Turning to `CCCCOc1ccc(C(=O)N/C(=C/C=C/c2ccccc2)C(=O)N2CCOCC2)cc1`, under setting [2], the AC50 is 12.6 µM [rising, partial curve]. `NNc1nc(-c2ccccc2)cc(-c2ccccc2O)n1`: under setting [1], the AC50 is 11.2 µM [falling, single point]. `CCCOC(=O)c1c(-c2ccc(C)cc2C)csc1NC(=O)C1C2CCC(O2)C1C(=O)O` (stereo not drawn): the AC50 reads like this: under setting [1], 10 µM [rising, partial curve]; under setting [2], 10 µM [rising, partial curve, poor fit]. For `Oc1ccc(-c2nc(-c3ccc(O)c(O)c3)cs2)cc1`, the AC50 under setting [2] was 7.94 µM [rising, partial curve]. Regarding `CCOC(=O)c1ccc(NC(=O)c2c(NCc3cccc(OC)c3OC)sc3c2CCC3)cc1`, the AC50 under setting [1] was 0.01 µM [rising, full curve, poor fit]. As to `CCCC(=O)Nc1sc2c(c1C(=O)Nc1ccccn1)CCCC2`, the AC50 runs as follows: under setting [1], 12.6 µM [falling, partial curve]; under setting [2], 11.2 µM [falling, single point]. Consider `COc1ccc(-n2cnc3scc(-c4ccc(OC)c(OC)c4)c3c2=O)cc1`, for which the AC50 reads like this: under setting [1], 35.5 µM [falling, single point]; under setting [2], 35.5 µM [falling, single point].

With `O=C(c1ccc(Cl)cc1)C(Cn1cncn1)C(Sc1ccccc1)c1ccccc1` (stereo not drawn), the AC50 under setting [2] is 31.6 µM [rising, single point]. On to `CCOc1cc(/C=C/c2nc3ccccc3s2)ccc1OCC(=O)N1CCOCC1`, for which the AC50 by setting is: under setting [1], 10 µM [rising, partial curve, poor fit]; under setting [2], 17.8 µM [rising, partial curve]. Take `Cc1oc2c(c1C(=O)c1ccccc1)C(=O)C(=O)c1ccccc1-2`: the AC50 runs as follows: under setting [1], 10 µM [falling, partial curve]; under setting [2], 11.2 µM [falling, partial curve]. As for `CCOC(=O)C(C)On1c(-c2ccc(Cl)cc2)nc2ccc([N+](=O)[O-])cc21` (stereo not drawn), under setting [2], the AC50 is 15.8 µM [rising, single point]. Still for that read-out and setting: for `Cc1cccc(N2CCN(C(=S)c3ccc(-c4ccccc4[N+](=O)[O-])o3)CC2)c1` the value was 1 µM [rising, partial curve, poor fit]; for `COc1ccc(CCn2c(C)cc(C(=O)CCl)c2C)cc1OC`, 3.98 µM [rising, single point]. Still for that read-out and setting: for `O=C(NC1CCCCC1)C(c1ccncc1)N(C(=O)Cc1cccs1)c1ccccc1` (stereo not drawn) the value was 39.8 µM [falling, partial curve, poor fit]. Regarding `COc1ccccc1C/C(N)=N/OC(=O)c1cccc([N+](=O)[O-])c1C`, the AC50 under setting [1] was 17.8 µM [rising, single point].

Take `CCCCn1nc2cc(C(=O)NCC34CC5CC(CC(C5)C3)C4)ccc2c1OCC`: the AC50 is, setting by setting: under setting [1], 35.5 µM [rising, single point]; under setting [2], 22.4 µM [rising, single point].

For `CC(C)n1cc(CN2CCN(CCc3ccccc3)C(CCO)C2)cn1` (stereo not drawn), the AC50 under setting [1] is 3.98 µM [rising, single point].

As for `O=C1C(Cc2ccc(Br)cc2)SC(=Nc2ccccc2)N1c1ccccc1` (stereo not drawn), the AC50 under setting [2] was 35.5 µM [rising, single point]. `O=C(Nc1cccc2[nH]ncc12)c1ccc(F)cc1`: the AC50 under setting [2] is 4.47 µM [falling, partial curve]. As for `Cc1cccc(C(=O)Nc2nnc(SCc3cc(=O)n4cccc(C)c4n3)s2)c1`, the AC50 under setting [1] was 4.47 µM [rising, partial curve, poor fit] and the AC50 under setting [2] is 12.6 µM [rising, partial curve, poor fit]. Take `O=C(Cc1ccc(Cl)cc1)NCC(c1cccs1)S(=O)(=O)c1ccc(Cl)cc1` (stereo not drawn): the half-maximal activity concentration (AC50) is 1.58 µM [rising, partial curve, poor fit] under setting [1] and 17.8 µM [rising, partial curve] under setting [2]. For `Cn1nc(C(=O)Nc2ccc(S(=O)(=O)N3CCOCC3)cc2)c2ccccc2c1=O`, under setting [1], the AC50 was 0.631 µM [rising, partial curve]. For the compound `C#Cc1cccc(Nc2ncnc3cc(OCCOC)c(OCCOC)cc23)c1`, the AC50 under setting [1] is 5.62 µM [falling, full curve, poor fit].

In the case of `COc1ccccc1CNc1nc(-c2ccoc2)nc2ccccc12`, the AC50 reads like this: under setting [1], 7.08 µM [falling, partial curve]; under setting [2], 8.91 µM [falling, partial curve].

The values are drawn from PubChem BioAssay AID1487 (National Center for Advancing Translational Sciences (NCATS), 2009).
